Results deposited as PubChem BioAssay AID1259279 (Sanger Institute, 2017).
This is a random part of 794 reagents tested. 11 of them (1.4%) were called active. 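Calls reflect knock-down alone in the vehicle arm, not drug synergy.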 Unmarked entries are inactive. Not all columns of the deposit are shown. The record does not give: the amount of reagent, the time to read-out.

Screen: 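Kinases that colorectal cancer cells need to survive, alone or with drugs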 (primary screen)
Cells: LS180 human colorectal cancer cells
Reagents: siRNA pool against human genes
Challenge: anchor drug BYL719 at 1 µM, cetuximab at 5 µg/ml or trametinib at 10 nM, or DMSO vehicle only
Measurement: 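Cell viability versus a non-targeting pool, as a fraction and as a robust z-score from replicate means, plus a synergy score for each of three drugs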
Direction: viability z-score, no drug: higher = more viable cells after knock-down
Hit rule: 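Essential (active) calls need a no-drug viability z-score lower than -3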
Calls: active = essential (knock-down alone cuts viability); inactive = no change without drug

The first 3 records, ahead of the listing:
| gene knocked down | viability z-score, no drug |
| --- | --- |
| RPS6KA2 (GeneID 6196) | -2.43 |
| VRK2 (GeneID 7444) | -0.788 |
| PRKCA (GeneID 5578) | -0.534 |

Results, from the first entry:
| gene knocked down | viability z-score, no drug |
| --- | --- |
| RPS6KA2 (GeneID 6196) | -2.43 |
| VRK2 (GeneID 7444) | -0.788 |
| PRKCA (GeneID 5578) | -0.534 |
| TAF1L (GeneID 138474) | 0.739 |
| KHK (GeneID 3795) | -0.71 |
| CSNK2A1 (GeneID 1457) | 0.86 |
| PHKA1 (GeneID 5255) | 0.656 |
| EPHB4 (GeneID 2050) | 0.86 |
| GOLGA5 (GeneID 9950) | 0.854 |
| MAPK6 (GeneID 5597) | 0.0601 |
| AK1 (GeneID 203) | 0.433 |
| APC (GeneID 324) | 0.0902 |
| MAP3K3 (GeneID 4215) | 0.296 |
| MERTK (GeneID 10461) | -0.339 |
| CDK2 (GeneID 1017) | 0.86 |
| NTRK2 (GeneID 4915) | 0.86 |
| AURKC (GeneID 6795) | 0.0958 |
| DYRK4 (GeneID 8798) | -2.87 |
| PAK3 (GeneID 5063) | 0.135 |
| MAPK7 (GeneID 5598) | 0.387 |
| CDK14 (GeneID 5218) | 0.86 |
| NEK1 (GeneID 4750) | 0.581 |
| EGFR (GeneID 1956) | 0.486 |
| MAPK14 (GeneID 1432) | 0.86 |
| PPP2R1A (GeneID 5518) | 0.86 |
| FGR (GeneID 2268) | -1.52 |
| MAP3K4 (GeneID 4216) | 0.688 |
| CSF1R (GeneID 1436) | -2.21 |
| PRKD2 (GeneID 25865) | -0.123 |
| CDKL1 (GeneID 8814) | 0.533 |
| TSSK3 (GeneID 81629) | 0.721 |
| AMHR2 (GeneID 269) | -0.0781 |
| CDADC1 (GeneID 81602) | -0.705 |
| PFKFB3 (GeneID 5209) | 0.111 |
